Values from PubChem BioAssay AID1259308 (NCATS, 2017)
Purpose: 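Genes whose loss raises luciferase production in HEK293 cells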 (primary screen). Cells: human HEK293 embryonic kidney cells stably expressing firefly luciferase (HEK-CMV-Luc2-Hygro). Knock-down reagent: single siRNA against human genes, 0.8 pmol siRNA per well. Duration: 72 h. Measurement: 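Luciferase light (ONE-Glo) measured on one replicate plate set and viability (CellTiter-Glo) on the other, scaled to a negative control siRNA, with robust z-scores and luciferase per cell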. Reading the numbers: total luciferase, z-score: higher = more reporter protein produced. Active means: 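Active when the median/MAD z-score for overall luciferase is greater than 3; a gene was taken forward for validation with new siRNAs if at least two of its three siRNAs passed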. Meaning of the calls: active = raised luciferase; inactive = no rise.
In all, the deposit lists about 59,000 reagents; this is an unselected part. About 1,510 of them (2.6%) count as active. 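Calls use total luciferase alone and ignore viability, so some active siRNAs may act by altering cell number.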 Reagents against one gene are numbered here. Not all columns of the deposit are shown. Reagent sequences are not shown.

total luciferase, z-score, by target and reagent
SLITRK4: #1 -0.245 inactive; #2 -1.37 inactive; #3 -0.0544 inactive
SAE1: #1 -0.402 inactive; #2 0.529 inactive; #3 2.43 inactive
KLK15: #1 0.39 inactive; #2 -1.21 inactive; #3 -1.34 inactive
MYO5B: #1 -0.491 inactive; #2 -0.338 inactive; #3 -0.00812 inactive
NUP58: #1 -2.37 inactive; #2 -1.57 inactive; #3 0.832 inactive
TMEM138: #1 0.589 inactive; #2 -1.02 inactive; #3 -0.157 inactive
GXYLT2: #1 0.505 inactive; #2 0.94 inactive; #3 -0.0242 inactive
NBPF1: #1 0.382 inactive; #2 0.273 inactive; #3 -0.43 inactive
SLAMF8: #1 -1.13 inactive; #2 1.24 inactive; #3 -1.22 inactive
LRRC7: #1 -1.07 inactive; #2 -0.366 inactive; #3 -0.897 inactive
TMEM38A: #1 0.512 inactive; #2 -0.799 inactive; #3 0.364 inactive
RPL26P30: #1 0.57 inactive; #2 -0.841 inactive; #3 -2.38 inactive
TECPR2: #1 0.666 inactive; #2 -2.21 inactive; #3 0.14 inactive
MZT2B: #1 -0.263 inactive; #2 0.125 inactive; #3 -0.146 inactive
HDGF: #1 -0.776 inactive; #2 -0.0643 inactive; #3 -1.9 inactive
SYT14: #1 0.556 inactive; #2 0.103 inactive; #3 2.45 inactive
ZNF710: #1 0.011 inactive; #2 0.958 inactive; #3 0.983 inactive
SESTD1: #1 -0.26 inactive; #2 -0.0105 inactive; #3 0.193 inactive
GUK1: #1 1.11 inactive; #2 0.503 inactive; #3 3.15 active
MAFA: #1 -0.248 inactive; #2 0.15 inactive; #3 1.81 inactive
WDTC1: #1 -0.413 inactive; #2 -0.373 inactive; #3 -0.567 inactive
RPL18AP4: #1 -0.541 inactive; #2 -0.85 inactive; #3 -0.37 inactive
KDM5D: #1 -0.628 inactive; #2 -0.406 inactive; #3 5.73 active
ZPR1: #1 -0.398 inactive; #2 4 active; #3 0.259 inactive
SPTLC3: #1 -0.793 inactive; #2 -1.29 inactive; #3 -0.041 inactive

As entered above:
Under “activity call”, SPTLC3 #3 reads inactive
Entry for MYO5B #3 under “total luciferase, z-score”: -0.00812
TMEM38A #3, activity call = inactive
For “total luciferase, z-score”, TMEM138 #3 shows -0.157
Under “total luciferase, z-score”, WDTC1 #1 has -0.413
Entry for HDGF #2 under “activity call”: inactive
